The target in experiment [1] is T1, MBD7 (Arabidopsis thaliana) (UniProt Q9FJF4).
T1 sequence: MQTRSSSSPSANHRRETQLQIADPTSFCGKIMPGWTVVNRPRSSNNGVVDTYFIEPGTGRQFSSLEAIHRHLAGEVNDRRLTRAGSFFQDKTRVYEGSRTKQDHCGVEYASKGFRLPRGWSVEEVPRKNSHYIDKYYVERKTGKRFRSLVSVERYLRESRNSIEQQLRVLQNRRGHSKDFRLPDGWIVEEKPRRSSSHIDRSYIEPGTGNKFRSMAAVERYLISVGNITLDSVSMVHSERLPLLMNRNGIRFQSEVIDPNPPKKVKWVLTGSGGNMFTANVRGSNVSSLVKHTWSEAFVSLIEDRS
The experiment is described as follows: pull-down; pull-down assays (Fig 1B); bait, tags and conditions not told in this correction.

For experiment [2], the target named is IDM2 (split-luc fusion). The experiment is described as follows: split reporter; split-luc assays in N. benthamiana leaves; three biological replicates.
For experiment [3], the target named is MYC-tagged IDM2. The experiment is described as follows: co-IP; co-immunoprecipitation from tobacco (N. benthamiana) leaves after transient expression; anti-GFP for IP, anti-MYC and anti-GFP for immunoblotting.
Experiment [4] has as its target IDL1 (co-immunoprecipitation in tobacco leaves). The experiment is described as above.

These are yes or no findings as the source states them, for the method shown. Binding seen in cells or lysates may run through a third protein. A result given as binding can be weak or reduced; the word gives no strength. For some assays here: Sequences can lack the tags named with a protein.

In the case of IDM2, the binding result in experiment [1] was “binds”.
Take IDL1: the binding result in experiment [1] is given as “binds”.

B1: MBD7 (split-luc fusion) (protein, UniProt Q9FJF4 1-306)
chain: T1 sequence
Take B1: in experiment [2], the binding entry is “binds”.

B2: MBD7 (co-immunoprecipitation in tobacco leaves) (protein, UniProt Q9FJF4 1-306)
chain: T1 sequence
In the case of B2, the binding result in experiment [3] and in experiment [4] was “binds” throughout.

The values above are taken from paper PMC4520522.
